Results are given in words; binding and its absence hold for the method and conditions named. Binding seen in cells or lysates may run through a third protein. Here binding means that the protein was enriched with, or labelled near, the bait; the list need not be complete.
Biological target: BLRP-2XHA-Top1 wt (topoisomerase I) (UniProt P11387)
Assay: affinity purification with mass spectrometry; ReCLIP: MCF7 cells cross-linked with 0.6 mM DSP (reversible), nuclear extracts, tagged TOP1 complexes captured on streptavidin beads, washes up to 500 mM NaCl, LC-MS/MS; Veh (-E2) and E2-treated cells

The chains behind the UniProt entries cited, without tags or fusion partners.
UniProt P11387: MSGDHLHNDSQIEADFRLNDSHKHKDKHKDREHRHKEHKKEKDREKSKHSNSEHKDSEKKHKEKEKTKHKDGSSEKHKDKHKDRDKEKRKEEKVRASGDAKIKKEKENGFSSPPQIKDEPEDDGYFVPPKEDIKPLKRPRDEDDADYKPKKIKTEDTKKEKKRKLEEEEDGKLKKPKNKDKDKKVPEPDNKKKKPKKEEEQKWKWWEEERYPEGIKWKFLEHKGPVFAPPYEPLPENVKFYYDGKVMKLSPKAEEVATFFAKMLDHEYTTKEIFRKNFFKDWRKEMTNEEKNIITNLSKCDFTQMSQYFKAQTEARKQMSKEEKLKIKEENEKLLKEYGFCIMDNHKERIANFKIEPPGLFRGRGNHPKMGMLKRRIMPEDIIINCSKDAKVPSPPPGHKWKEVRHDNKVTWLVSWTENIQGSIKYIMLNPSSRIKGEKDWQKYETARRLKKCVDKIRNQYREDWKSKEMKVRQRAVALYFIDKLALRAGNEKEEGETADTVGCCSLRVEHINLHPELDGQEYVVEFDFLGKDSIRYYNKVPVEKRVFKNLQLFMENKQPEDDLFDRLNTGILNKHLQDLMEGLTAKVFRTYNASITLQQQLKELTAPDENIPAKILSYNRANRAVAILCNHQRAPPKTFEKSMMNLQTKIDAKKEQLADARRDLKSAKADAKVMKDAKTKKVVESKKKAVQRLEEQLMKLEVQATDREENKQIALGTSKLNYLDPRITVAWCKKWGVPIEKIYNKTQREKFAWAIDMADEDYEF
UniProt Q13185: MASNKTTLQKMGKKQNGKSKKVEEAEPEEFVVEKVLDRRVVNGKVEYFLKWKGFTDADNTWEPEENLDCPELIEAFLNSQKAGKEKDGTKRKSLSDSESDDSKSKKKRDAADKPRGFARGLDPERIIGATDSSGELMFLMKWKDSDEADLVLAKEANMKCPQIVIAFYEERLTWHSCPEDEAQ
UniProt Q9BUH6: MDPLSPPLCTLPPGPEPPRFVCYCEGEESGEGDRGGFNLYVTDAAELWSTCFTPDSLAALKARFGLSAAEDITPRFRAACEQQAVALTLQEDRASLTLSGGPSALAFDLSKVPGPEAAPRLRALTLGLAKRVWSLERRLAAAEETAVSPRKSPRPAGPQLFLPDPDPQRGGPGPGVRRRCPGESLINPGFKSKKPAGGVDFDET

Row | Substance | binding
1 | heterochromatin protein 1 gamma (HP1γ) (from UniProt Q13185 1-183) | binds
2 | paralogues of XRCC4 and XLF (PAXX) (from UniProt Q9BUH6 1-204) | binds
